Tested on: HCC cell lines, Mahlavu, PLC5, HepG2, and Huh7
Experiment: MTT cell viability test in HCC cell lines
Settings: 72 h, Table 3-1
Description: The HCC cell lines, Mahlavu, PLC5, HepG2, and Huh7, were cultured in Dulbecco's Modified Eagle Medium (DMEM; Seromed, Berlin, Germany) supplemented with 10% heat-inactivated fetal bovine serum, 100 μg/ml streptomycin, 100 μg/ml penicillin, and 2 mM L-glutamine in a humidified atmosphere containing 5% CO2 at 37° C. […] The cells were exposed to different concentrations of the small molecules for 72 hours. Control cells were incubated in the absence of small molecules. Afterwards, the cells were incubated with medium containing MTT for 2 hours. […] For the clonogenic assay, Huh7 cells were seeded out in appropriate dilutions in a 6-well plate and treated with selected small molecules at various concentrations for 15 days. Colonies were fixed with glutaraldehyde (6.0% v/v), stained with crystal violet (0.5% w/v), and counted.

IC50: 5 to 10 µM
SMILES: O=C(CCCN1CCC2(CC1)C(=O)NCN2c1ccccc1)c1ccc(F)cc1 [spiperone]

Source: patent US20110287953A1, “METHOD FOR DISCOVERING POTENTIAL DRUGS” (priority 2010, published 2011)
